Values of other authors in patent US20040157240A1, “Diagnostic assay and related products” (The Brigham & Women's Hospital, Inc., priority 2002, published 2004).
Read-outs that look alike come from different tables or passages of the source. At least one structure is not confirmed: it was looked up by name or label, or the drawing left a doubt.

Conditions: cited from earlier work

Structure (SMILES): CCCC1O[C@@H]2C[C@H]3[C@@H]4CCC5=CC(=O)C=C[C@]5(C)[C@H]4[C@@H](O)C[C@]3(C)[C@]2(C(=O)CO)O1 (some centres unmarked) [Budesonide]
- effect in the initial study (FEV1) (at four years): not
- effect in the initial study (FEV1) (at one year): significant effect
